PubChem BioAssay AID504764, Drosophila RNAi Screening Center, 2011
In all, the deposit lists about 22,000 reagents; this is an unselected part of those that have a named target and a result. Of all reagents, 403 (1.9%) were called active. 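Unnormalised raw counts per well; ratio z-scores behind the hit calls and whether each hit raises or lowers signal are not deposited.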 The record does not give: the amount of reagent.

Screen: 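Genes whose knock-down alters Notch-dependent transcription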 (primary screen)
System: Drosophila Kc167 cells
Reagents: long dsRNA against Drosophila genes
Time to read-out: about 5 days (4 days dsRNA, then 24 h after transfection)
Treatment: transfection of constitutively active membrane-tethered Notch lacking the extracellular domain, read 24 h later
Read-out: 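Firefly luciferase from an E(spl)m3 reporter with active Notch, plus control-promoter and uninduced reporter wells for normalisation; unnormalised counts, duplicate wells a and b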
Direction: induced reporter light, run 1, well a and induced reporter light, run 1, well b: higher = more light from the Notch target reporter with active Notch; control promoter light, run 1, well a and control promoter light, run 1, well b: higher = more light from the viral control promoter (cell number, transfection, viability); uninduced reporter light, run 1, well a: higher = more light from the Notch target reporter without active Notch
Rule for the call: 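Wells with low control signal or poorly matching duplicates excluded; duplicates averaged; per source plate, z beyond ±2 for induced/control log2 ratio or beyond ±1.8 for induced/uninduced marks a hit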
Calls: active = modifier hit (raised or lowered Notch signal); inactive = not a hit

Target gene | dsRNA | induced reporter light, run 1, well a | induced reporter light, run 1, well b | control promoter light, run 1, well a | control promoter light, run 1, well b | uninduced reporter light, run 1, well a | Outcome
CG33465 (GeneID 3885587) | DRSC05587 | 1.80e5 | 1.95e5 | 2.48e5 | 2.42e5 | 18670 | inactive
CAH14 (GeneID 37359) | DRSC04234 | 58430 | 48200 | 47100 | 57965 | 1628 | inactive
rec (GeneID 49241) | DRSC14998 | 2.42e5 | 2.93e5 | 2.82e5 | 2.74e5 | 18120 | inactive
rec (GeneID 49241) | DRSC15656 | 2.50e5 | 2.72e5 | 2.87e5 | 2.86e5 | 20720 | inactive
CG12784 (GeneID 41903) | DRSC14539 | 2.77e5 | 2.75e5 | 2.04e5 | 2.21e5 | 20115 | inactive
Eno (GeneID 33351) | DRSC00750 | 79495 | 72065 | 73635 | 51410 | 6480 | inactive
Mcm10 (GeneID 35390) | DRSC03162 | 1.77e5 | 1.81e5 | 1.26e5 | 1.34e5 | 15515 | inactive
Cpr64Ab (GeneID 38509) | DRSC08461 | 1.28e5 | 98580 | 1.69e5 | 1.41e5 | 5540 | inactive
CG15143 (GeneID 35062) | DRSC02444 | 1.23e5 | 1.55e5 | 1.16e5 | 1.35e5 | 11190 | inactive
wb (GeneID 43946) | DRSC01375 | 3725 | 3270 | 3665 | 3435 | 4045 | inactive
wb (GeneID 43946) | DRSC03634 | 1.56e5 | 1.63e5 | 1.50e5 | 1.57e5 | 13170 | inactive
CG3829 (GeneID 38000) | DRSC04423 | 2.62e5 | 2.70e5 | 2.11e5 | 2.32e5 | 18640 | inactive
RpS3 (GeneID 42761) | DRSC16838 | 14550 | 14970 | 12130 | 14445 | 828 | inactive
CG14974 (GeneID 50167) | DRSC08433 | 1.26e5 | 1.27e5 | 1.48e5 | 1.22e5 | 5030 | inactive
Ctr1C (GeneID 43668) | DRSC15089 | 1.29e5 | 1.75e5 | 2.05e5 | 2.03e5 | 12465 | inactive
TwdlT (GeneID 44790) | DRSC16677 | 1.29e5 | 1.46e5 | 2.68e5 | 1.86e5 | 12435 | inactive
TwdlT (GeneID 44790) | DRSC21540 | – | – | – | – | – | inactive
PpN58A (GeneID 37493) | DRSC04642 | 2.17e5 | 2.06e5 | 1.73e5 | 1.89e5 | 17355 | inactive
CG6729 (GeneID 34484) | DRSC02984 | 3.09e5 | 2.98e5 | 2.09e5 | 2.20e5 | 17805 | active
CG13833 (GeneID 42718) | DRSC14683 | 1.77e5 | 1.72e5 | 2.15e5 | 1.95e5 | 15788 | inactive

Part of the list above, reduced to “induced reporter light, run 1, well b”.
rec (GeneID 49241) [DRSC15656] = 2.72e5
CG12784 (GeneID 41903) [DRSC14539] = 2.75e5
Eno (GeneID 33351) [DRSC00750] = 72065
